{
  "sequences": {"note": "Protein sequences, listed by entry. Tags and fused reporters are not part of them.", "UniProt Q9UJV9, whole entry R525H": "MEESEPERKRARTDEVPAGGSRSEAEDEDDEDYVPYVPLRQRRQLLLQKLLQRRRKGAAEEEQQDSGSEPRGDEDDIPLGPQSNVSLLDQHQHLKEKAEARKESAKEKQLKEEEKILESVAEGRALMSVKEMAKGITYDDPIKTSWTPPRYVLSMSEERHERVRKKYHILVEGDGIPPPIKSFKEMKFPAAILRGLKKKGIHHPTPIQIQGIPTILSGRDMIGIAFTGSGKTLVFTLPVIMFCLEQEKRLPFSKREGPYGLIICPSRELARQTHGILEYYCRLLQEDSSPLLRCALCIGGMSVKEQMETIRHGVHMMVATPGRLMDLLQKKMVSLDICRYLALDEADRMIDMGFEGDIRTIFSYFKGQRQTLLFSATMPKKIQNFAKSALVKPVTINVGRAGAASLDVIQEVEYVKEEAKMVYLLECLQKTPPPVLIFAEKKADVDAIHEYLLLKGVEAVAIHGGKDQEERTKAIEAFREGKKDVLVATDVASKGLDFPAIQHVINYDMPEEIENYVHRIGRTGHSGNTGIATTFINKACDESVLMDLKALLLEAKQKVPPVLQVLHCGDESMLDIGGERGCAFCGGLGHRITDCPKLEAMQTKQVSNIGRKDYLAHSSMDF"},
  "source": "paper PMC11147762",
  "target": "DDX41-R525H (Homo sapiens) (UniProt Q9UJV9)",
  "assay": "EMSA",
  "conditions": "0-1300 nM protein with 10 nM nucleic acid, recombinant protein, label: 5'-Cy5 on strand 1",
  "note": "Construct, isoform or probe ends are uncertain for at least one entry. Weaker means in comparison with the reference protein, sequence or condition of that experiment. At least one verdict rests on a figure or table, not on a statement of the authors.",
  "data": [
    {"sequence": "GCCAGGGACGAGGTGAACCTGCAGGTGGGCAAAGCAGCTGGCACGACAGGTATGAATCGCGTGGTAGAATTCGGCAGCGTCATGCGACGGC (double strand) [Duplex (homoduplex)]", "values": [
      {"measurement": "binding result", "result": "binds more weakly"}
    ]}
  ]
}
